The record followed here is paper PMC7593347 (International Journal for Parasitology: Drugs and Drug …, 2020).

What all share (format): cell-based
Assay [1] has as its system C. parvum HNJ-1 strain. Description: Initial epigenetic library compound screening for C. parvum. Particulars: Cryptosporidium parvum, HCT-8, 48 h, read-out: Parasite inhibition (%) (primary screening).
In assay [2] the test system is C. parvum. Particulars: Cryptosporidium parvum, HCT-8, 48 h, read-out: Parasite inhibition (%).
The subject of assay [3] is HCT-8 cells. Description: Cytotoxicity to HCT-8 cells. Particulars: Homo sapiens, HCT-8, 48 h, read-out: Host cell IC50.

On to `O=C(CCCCCCC(=O)Nc1ccccc1)NO` [SAHA], for which the inhibition (as a rule, the change of the read-out against control, counted positive when it falls) at 5 µM was 100% in assay [1] and -0.8 ± 5.8% in assay [2]. In addition, the IC50 (as a rule, the concentration that inhibits the measured activity by half) in assay [3] came to 2500 ± 300 nM.
